Results are given in words; binding and its absence hold for the method and conditions named. Binding seen in cells or lysates may run through a third protein.
Target: GAPDH (endogenous, OVCA420) (human (endogenous in OVCA420)) (UniProt P04406)
Test: co-IP; endogenous proteins in OVCA420 lysate (25 mM Tris-HCl pH 7.4, 150 mM NaCl, 1 mM EDTA, 1% NP-40, 5% glycerol); IP with CLDN7 antibody or, as control, GAPDH antibody, Protein A and Protein G beads, 4°C; blot for APLP2

By UniProt entry, the sequences of proteins in these tests, tags left out. Residues count along the entry.
UniProt P04406: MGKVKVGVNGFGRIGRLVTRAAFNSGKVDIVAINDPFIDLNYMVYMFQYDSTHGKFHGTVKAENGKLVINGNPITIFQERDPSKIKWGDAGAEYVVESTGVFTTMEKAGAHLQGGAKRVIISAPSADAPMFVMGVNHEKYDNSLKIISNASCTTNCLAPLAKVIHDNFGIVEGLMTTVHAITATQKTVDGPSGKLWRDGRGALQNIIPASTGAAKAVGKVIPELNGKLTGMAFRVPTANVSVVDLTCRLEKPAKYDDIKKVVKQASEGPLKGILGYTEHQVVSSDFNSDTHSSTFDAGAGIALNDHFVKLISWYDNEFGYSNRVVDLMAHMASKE
UniProt Q06481, residues 32-763: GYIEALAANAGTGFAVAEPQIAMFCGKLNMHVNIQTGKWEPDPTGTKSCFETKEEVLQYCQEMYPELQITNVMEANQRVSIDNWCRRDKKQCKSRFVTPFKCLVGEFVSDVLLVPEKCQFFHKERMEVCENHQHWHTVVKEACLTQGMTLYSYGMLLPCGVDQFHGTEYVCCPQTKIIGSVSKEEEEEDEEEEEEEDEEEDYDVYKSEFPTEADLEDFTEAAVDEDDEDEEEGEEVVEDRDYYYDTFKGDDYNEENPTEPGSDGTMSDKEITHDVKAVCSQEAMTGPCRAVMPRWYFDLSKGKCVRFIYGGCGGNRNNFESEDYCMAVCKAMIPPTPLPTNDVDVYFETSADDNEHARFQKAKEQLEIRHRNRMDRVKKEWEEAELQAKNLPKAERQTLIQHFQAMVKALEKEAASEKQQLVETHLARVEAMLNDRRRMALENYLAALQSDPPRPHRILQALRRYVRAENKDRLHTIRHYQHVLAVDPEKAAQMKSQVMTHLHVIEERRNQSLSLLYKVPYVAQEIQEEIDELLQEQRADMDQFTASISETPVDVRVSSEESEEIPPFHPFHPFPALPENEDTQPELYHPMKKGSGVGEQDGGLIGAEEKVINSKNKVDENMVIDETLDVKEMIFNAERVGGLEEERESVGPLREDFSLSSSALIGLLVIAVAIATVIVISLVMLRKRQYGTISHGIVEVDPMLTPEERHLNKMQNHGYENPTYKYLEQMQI

binding: no binding
Substance: Amyloid precursor-like protein 2 (endogenous, OVCA420) (from UniProt Q06481 32-763)

Source: paper PMC7117550
